Paper PMC6896172, “Successful Targeting of the Warburg Effect in Prostate Cancer by Glucose-Conjugated 1,4-Naphthoquinones” (Cancers, 2019)
Further values from the same series stand in other lists.

Test system: 22Rv1 cells
Test: Global proteome analysis (LC-MS/MS, DIA) of differentially expressed proteins
Type: cell-based, human
Experimental: 22Rv1 cells were seeded in T75 culture bottles (4 × 10^6 cells/bottle in 20 mL/bottle), treated for 48 h with the 5 µM of compound 11 or vehicle (DMSO), harvested by scratching, washed twice with ice-cold PBS and flash-frozen. Cells were lysed and sonicated. The protein extracts were then heat-denaturated, reduced, alkylated and digested by trypsin. Peptides were chromatographically separated using full recovery autosampler vials and a nano-UPLC system (Acquity, Waters Corporation, Milford, MS, USA), coupled via electrospray ionization (ESI) to a tandem mass spectrometer equipped with a quadrupole and an orbitrap (QExactive, Thermo Fisher Scientific, Bremen, Germany), using MS/MS mode in data dependent acquisition (DDA) and data independent acquisition (DIA). The peptides, analyzed with DDA-LC-MS/MS, were identified with the search engine Sequest, integrated in the Proteome Discoverer software version 2.0 (Thermo Fischer Scientific) using the human Uniprot protein database (EMBL; Hinxton Cambridge, UK, release December 2018). […] For the details of sample preparation and proceeding, data acquisition and analysis see the Supplementary information. […]
serum (FBS, Invitrogen) and 1% penicillin/streptomycin (Invitrogen)). […]
Cell lines were lysed in 100 mM triethylammonium bicarbonate and 1% w/v sodium deoxycholate buffer followed by probe sonication to destroy polynucleotides and heat induce protein denaturing at 99 °C for 5 min. Protein concentrations were estimated with a bicinchonic acid (BCA) protein assay (Thermo Fisher Scientific, Bremen, Germany). 20 µg of protein were reduced in presence of 10 mM dithiotreithol (Sigma Aldrich) for 30 min at 60 °C followed by cysteine alkylation with 20 mM iodo acetamide (Sigma Aldrich) for 30 min at 37 °C in the dark and enzymatic degradation with sequencing grade trypsin (Promega) over night at 37 °C. Digestion was quenched with 1% formic acid (FA), precipitated sodium deoxycholate removed by centrifugation for 5 min at 14,000 g and the supernatant was dried in a vacuum centrifuge.
LC-MS/MS in Data Dependent and Data Independent Mode
Samples were resuspended in 0.1% FA and transferred into a full recovery autosampler vial (Waters). Chromatographic separation was achieved on a nano -UPLC system (Acquity, Waters Corporation, Milford, MS, USA) with a two-buffer-system (buffer A: 0.1% FA in water, buffer B:
0.1% FA in Acetonitrile (ACN), both at pH = 3). Attached to the UPLC was a reversed -phase peptide trapping column (Symmetry C18, 180 µm × 20 mm, 100 Å pore size, 5 µm particle size) for desalting, followed by a reversed-phase capillary separation of the tryptic peptides (BEH C18; 75 µm × 200 mm, 130 Å pore size, 1.7 µm particle size), using a 60 min gradient with increasing ACN concentration from 2–30% ACN. The eluting peptides were analyzed on a quadrupole-orbitrap mass spectrometer (QExactive, Thermo Fisher Scientific, Bremen, Germany) in data dependent acquisition (DDA) and data independent acquisition (DIA) for quantification.
In DDA mode, one replicate of each cell line was randomly chosen and 1 µg per sample was used per LC-MS/MS run to build a reference spectral library used for data extraction of samples acquired in DIA mode. For DDA, the 12 most intense ions per precursor scan (1 × 10 6 ions, 70,000 Resolution, 120 ms fill time) were analyzed by MS/MS (HCD at 25 normalized collision energy, 1 × 105 ions, 17,500 Resolution, 50 ms fill time) in a range of 400–1300 m/z. A dynamic precursor exclusion of 20 s was used. For DIA, 1 µg of each sample was analyzed using a 30 sequential 20 Da fixed window method covering the mass range from 400 –1000 m/z. Per cycle, 2 precursor scans (1 × […]
28 normalized collision energy, 1 × 106 ions, 17,500 Resolution, 50 ms fill time) were performed.
After the first precursor scan, 15 MS/MS scans were performed covering the precursor mass range from 400–700 m/z followed by the second precursor scan and another 15 MS/MS scans ranging from […]
LC-MS/MS Data Processing and Analysis […]

Compound: CC1(C)OC2OC(C(O)COC3=CC(=O)c4cccc(O)c4C3=O)C(O)C2O1 (stereo not drawn) [Compound 11]
- Fold change (treated / control) (protein PTCD3_HUMAN (Q96EY7)): 0.8017
- Fold change (treated / control) (protein PYC_HUMAN (P11498)): 0.7167
- Fold change (treated / control) (protein PYR1_HUMAN (P27708)): 0.8386
- Fold change (treated / control) (protein RAB13_HUMAN (P51153)): 0.5414
- Fold change (treated / control) (protein RBBP4_HUMAN (Q09028)): 0.7477
- Fold change (treated / control) (protein RBM3_HUMAN (P98179)): 0.4156
- Fold change (treated / control) (protein RBM15_HUMAN (Q96T37)): 0.6754
- Fold change (treated / control) (protein RFC1_HUMAN (P35251)): 0.5451
- Fold change (treated / control) (protein RIR1_HUMAN (P23921)): 0.7104
- Fold change (treated / control) (protein RL3_HUMAN (P39023)): 0.765
- Fold change (treated / control) (protein RL5_HUMAN (P46777)): 0.7312
- Fold change (treated / control) (protein RL7A_HUMAN (P62424)): 0.6916
- Fold change (treated / control) (protein RL8_HUMAN (P62917)): 0.705
- Fold change (treated / control) (protein RL9_HUMAN (P32969)): 0.3596
- Fold change (treated / control) (protein RL17_HUMAN (P18621)): 0.7086
- Fold change (treated / control) (protein RL18_HUMAN (Q07020)): 0.4989
- Fold change (treated / control) (protein RL21_HUMAN (P46778)): 0.7748
- Fold change (treated / control) (protein RL24_HUMAN (P83731)): 0.7258
- Fold change (treated / control) (protein RL29_HUMAN (P47914)): 0.5022
- Fold change (treated / control) (protein RL30_HUMAN (P62888)): 0.5421
- Fold change (treated / control) (protein RL31_HUMAN (P62899)): 0.4309
- Fold change (treated / control) (protein RL36L_HUMAN (Q969Q0)): 0.4658
- Fold change (treated / control) (protein RM15_HUMAN (Q9P015)): 0.5026
- Fold change (treated / control) (protein RM16_HUMAN (Q9NX20)): 0.5171
- Fold change (treated / control) (protein RM17_HUMAN (Q9NRX2)): 0.5436
- Fold change (treated / control) (protein RM19_HUMAN (P49406)): 0.6745
- Fold change (treated / control) (protein RM37_HUMAN (Q9BZE1)): 0.5246
- Fold change (treated / control) (protein RM38_HUMAN (Q96DV4)): 0.7528
- Fold change (treated / control) (protein ROA1_HUMAN (P09651)): 0.6844
- Fold change (treated / control) (protein RPAB4_HUMAN (P53803)): 0.7108
- Fold change (treated / control) (protein RPB2_HUMAN (P30876)): 0.4541
- Fold change (treated / control) (protein RS3A_HUMAN (P61247)): 0.7836
- Fold change (treated / control) (protein RS3_HUMAN (P23396)): 0.7838
- Fold change (treated / control) (protein RS4X_HUMAN (P62701)): 0.7316
- Fold change (treated / control) (protein RS5_HUMAN (P46782)): 0.7012
- Fold change (treated / control) (protein RS8_HUMAN (P62241)): 0.7705
- Fold change (treated / control) (protein RS11_HUMAN (P62280)): 0.7006
- Fold change (treated / control) (protein RS14_HUMAN (P62263)): 0.6832
- Fold change (treated / control) (protein RS20_HUMAN (P60866)): 0.8472
- Fold change (treated / control) (protein RS25_HUMAN (P62851)): 0.7448
- Fold change (treated / control) (protein RS27A_HUMAN (P62979)): 0.7954
- Fold change (treated / control) (protein RT07_HUMAN (Q9Y2R9)): 0.6784
- Fold change (treated / control) (protein RT18A_HUMAN (Q9NVS2)): 0.5156
- Fold change (treated / control) (protein RT18B_HUMAN (Q9Y676)): 0.3594
- Fold change (treated / control) (protein RT22_HUMAN (P82650)): 0.7257
- Fold change (treated / control) (protein RT23_HUMAN (Q9Y3D9)): 0.4341
- Fold change (treated / control) (protein RT27_HUMAN (Q92552)): 0.5557
- Fold change (treated / control) (protein RT28_HUMAN (Q9Y2Q9)): 0.6729
- Fold change (treated / control) (protein RT34_HUMAN (P82930)): 0.3998
- Fold change (treated / control) (protein RU17_HUMAN (P08621)): 0.7694
- Fold change (treated / control) (protein S35B2_HUMAN (Q8TB61)): 0.6783
- Fold change (treated / control) (protein S39A7_HUMAN (Q92504)): 0.3788
- Fold change (treated / control) (protein SARNP_HUMAN (P82979)): 0.7452
- Fold change (treated / control) (protein SDF2L_HUMAN (Q9HCN8)): 0.8547
- Fold change (treated / control) (protein SDHB_HUMAN (P21912)): 0.4112
- Fold change (treated / control) (protein SF3B1_HUMAN (O75533)): 0.8384
- Fold change (treated / control) (protein SLD5_HUMAN (Q9BRT9)): 0.7628
- Fold change (treated / control) (protein SMC1A_HUMAN (Q14683)): 0.7088
- Fold change (treated / control) (protein SMD1_HUMAN (P62314)): 0.7686
- Fold change (treated / control) (protein SMRC2_HUMAN (Q8TAQ2)): 0.751
- Fold change (treated / control) (protein SND1_HUMAN (Q7KZF4)): 0.6826
- Fold change (treated / control) (protein SNF5_HUMAN (Q12824)): 0.7197
- Fold change (treated / control) (protein SP16H_HUMAN (Q9Y5B9)): 0.7259
- Fold change (treated / control) (protein SSNA1_HUMAN (O43805)): 0.6754
- Fold change (treated / control) (protein STEA2_HUMAN (Q8NFT2)): 0.3512
- Fold change (treated / control) (protein SUCB1_HUMAN (Q9P2R7)): 0.8325
- Fold change (treated / control) (protein SUCB2_HUMAN (Q96I99)): 0.8543
- Fold change (treated / control) (protein SUMO2_HUMAN (P61956)): 0.1159
- Fold change (treated / control) (protein SYAC_HUMAN (P49588)): 0.5085
- Fold change (treated / control) (protein SYAM_HUMAN (Q5JTZ9)): 0.5065
- Fold change (treated / control) (protein SYDM_HUMAN (Q6PI48)): 0.6768
- Fold change (treated / control) (protein SYF1_HUMAN (Q9HCS7)): 0.4892
- Fold change (treated / control) (protein SYPH_HUMAN (P08247)): 0.8591
- Fold change (treated / control) (protein SYQ_HUMAN (P47897)): 0.8152
- Fold change (treated / control) (protein SYTM_HUMAN (Q9BW92)): 0.4662
- Fold change (treated / control) (protein SYVC_HUMAN (P26640)): 0.8291
- Fold change (treated / control) (protein TBB4B_HUMAN (P68371)): 0.7221
- Fold change (treated / control) (protein TE2IP_HUMAN (Q9NYB0)): 0.8607
- Fold change (treated / control) (protein TEBP_HUMAN (Q15185)): 0.8374
- Fold change (treated / control) (protein TECR_HUMAN (Q9NZ01)): 0.7078
- Fold change (treated / control) (protein TFB2M_HUMAN (Q9H5Q4)): 0.6991
- Fold change (treated / control) (protein THIL_HUMAN (P24752)): 0.7393
- Fold change (treated / control) (protein THTR_HUMAN (Q16762)): 0.4968
- Fold change (treated / control) (protein TIM13_HUMAN (Q9Y5L4)): 0.5414
- Fold change (treated / control) (protein TM205_HUMAN (Q6UW68)): 0.723
- Fold change (treated / control) (protein TMX1_HUMAN (Q9H3N1)): 0.7963
- Fold change (treated / control) (protein TOM34_HUMAN (Q15785)): 0.4323
- Fold change (treated / control) (protein TOP2A_HUMAN (P11388)): 0.2459
- Fold change (treated / control) (protein TOP2B_HUMAN (Q02880)): 0.7139
- Fold change (treated / control) (protein TR112_HUMAN (Q9UI30)): 0.7955
- Fold change (treated / control) (protein TRAP1_HUMAN (Q12931)): 0.8199
- Fold change (treated / control) (protein TSN8_HUMAN (P19075)): 0.3645
- Fold change (treated / control) (protein U520_HUMAN (O75643)): 0.8108
- Fold change (treated / control) (protein UBE2T_HUMAN (Q9NPD8)): 0.4008
- Fold change (treated / control) (protein UBF1_HUMAN (P17480)): 0.7121
- Fold change (treated / control) (protein VGF_HUMAN (O15240)): 0.5125
- Fold change (treated / control) (protein VKOR1_HUMAN (Q9BQB6)): 0.7313
- Fold change (treated / control) (protein WDR36_HUMAN (Q8NI36)): 0.8098
- Fold change (treated / control) (protein YTHD2_HUMAN (Q9Y5A9)): 0.6968
- Fold change (treated / control) (protein ZBT10_HUMAN (Q96DT7)): 0.5298
- Fold change (treated / control) (protein ZC11A_HUMAN (O75152)): 0.7642
- Fold change (treated / control) (protein ZFPL1_HUMAN (O95159)): 0.7601
